Laboratory results from paper PMC3731217.
Results are given in words; binding and its absence hold for the method and conditions named. In cells and extracts the contact can be indirect. Some entries that bind do so weakly or less than the wild type. Where a sequence is shown, tags or fusion partners need not be part of it.

By UniProt entry, the sequences of proteins in these tests, tags left out.
UniProt Q02248: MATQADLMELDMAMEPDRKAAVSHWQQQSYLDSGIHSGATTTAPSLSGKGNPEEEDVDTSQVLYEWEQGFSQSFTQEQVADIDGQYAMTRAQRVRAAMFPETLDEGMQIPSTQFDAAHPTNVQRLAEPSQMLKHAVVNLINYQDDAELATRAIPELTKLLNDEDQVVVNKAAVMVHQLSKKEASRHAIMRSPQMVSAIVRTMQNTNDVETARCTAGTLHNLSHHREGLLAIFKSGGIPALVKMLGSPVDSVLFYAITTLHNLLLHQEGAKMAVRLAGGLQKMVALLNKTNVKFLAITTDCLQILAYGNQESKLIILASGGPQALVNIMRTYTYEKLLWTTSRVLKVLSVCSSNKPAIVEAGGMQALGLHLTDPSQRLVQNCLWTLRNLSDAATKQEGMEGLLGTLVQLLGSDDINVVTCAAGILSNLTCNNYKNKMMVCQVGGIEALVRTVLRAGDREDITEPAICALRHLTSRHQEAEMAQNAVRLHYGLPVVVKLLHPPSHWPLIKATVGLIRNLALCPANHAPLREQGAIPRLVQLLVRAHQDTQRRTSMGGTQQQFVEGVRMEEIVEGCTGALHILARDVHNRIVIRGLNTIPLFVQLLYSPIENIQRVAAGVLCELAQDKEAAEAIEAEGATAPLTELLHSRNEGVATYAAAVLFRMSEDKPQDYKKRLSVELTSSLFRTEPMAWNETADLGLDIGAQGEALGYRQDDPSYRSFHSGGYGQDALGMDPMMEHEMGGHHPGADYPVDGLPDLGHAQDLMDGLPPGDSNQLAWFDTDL

Molecular target: T1, GST-fusion protein of the inhibitor of β-catenin and TCF-4 (ICAT) (UniProt Q9NSA3)
T1 sequence: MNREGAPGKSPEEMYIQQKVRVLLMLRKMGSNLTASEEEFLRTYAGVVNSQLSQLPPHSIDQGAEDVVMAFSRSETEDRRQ
Assay: pull-down; µGST pull-down within a suspension bead array panel; GST-ICAT as bait protein; small intestine epithelial cell extracts of four mouse genotypes; signal in relative fluorescence units; only the target purified

binding: binds
Substance: β-catenin (from UniProt Q02248 1-781)
